49 compounds from paper PMC12040169 (PLOS Biology, 2025) can be followed below.

Some of the results follow.

This assay relates to T1, CTL2-GFP (C. trachomatis L2/434/Bu, GFP-expressing).
T1 construct: L2/434/Bu, GFP-expressing
Also on record: species or system HeLa; Intracellular C. trachomatis growth in HeLa cells, bulk GFP fluorescence relative to DMSO. Particulars: bulk GFP, single well; 28.5 h, 10 µM; inhibitor.
As for `COc1cccc(CN2CCCC(NC(=O)NCc3cccs3)C2)c1` (stereo not shown) [CBK307357], the “% of control remaining” value turned out to be 135.491%. For `Cn1c(=O)c2c(nc(CN3CCN(C(=O)c4ccco4)CC3)n2CCc2ccccc2)n(C)c1=O` [CBK269278], the “% of control remaining” value came out at 149.629%. Under `CCNC(=O)Nc1ccc(-c2ccc3c(c2)OCCCO3)c2ccccc12` [CBK083726] stands 114.206%. With `COc1ccc(CCN(Cc2cccnc2)CC(O)COc2cccc3c2CCCC3)cc1` (stereo not shown) [CBK024545T], the “% of control remaining” value was 81.9367%. `COc1cc(C(=O)N2CCC3(CC2)CC(=O)c2cc(-c4ccc(N(C)C)cc4)ccc2O3)cc(OC)c1C` [CBK170663]: the “% of control remaining” value is given as 133.31%. On to `CC(Oc1ccc2c(c1)OCO2)C(=O)NNC(=O)Nc1cccc(C(F)(F)F)c1` (stereo not shown) [CBK266922], for which the “% of control remaining” value came to 151.709%. The figure for `CCn1nc(C)c(C(C)NC(=O)c2ccnn2C(F)F)c1C` (stereo not shown) [CBK281535] is 123.498%. The figure for `O=C(COc1ccc(S(=O)(=O)N2CCCC2)cc1Cl)NCC1CCCO1` (stereo not shown) [CBK268243] is 114.521%. The figure for `CC1CNCCN1C(=O)c1ccnc(N2CCN(C)CC2)c1` (stereo not shown) [CBK304122] is 122.593%. As for `CCOC(=O)C(NCCc1ccc(OC)c(OC)c1)(NC(=O)c1ccco1)C(F)(F)F` (stereo not shown) [CBK013715], the “% of control remaining” value is reported as 95.9475%. Under `O=C(O)c1ccccc1-c1ccc(/C=C2\S/C(=N\c3ccccc3)N(c3ccccc3)C2=O)o1` [CBK262566] stands 103.035%; under `COc1ccc(S(=O)(=O)NCCNC(=O)c2cc(Br)cnc2N(C)S(C)(=O)=O)cc1` [CBK076477], 103.115%.

With `CN(C)C(CNc1nccnc1-c1ccccc1F)c1cccnc1` (stereo not shown) [CBK037290], the “% of control remaining” value worked out at 90.2121%.

Regarding `Nc1nnc(CCS(=O)(=O)c2ccc(Br)cc2)s1` [CBK026286], the “% of control remaining” value turned out to be 87.6338%.

For the compound `CC(CNC1CCCC1)C(O)(c1ccccc1)c1ccccc1` (stereo not shown) [CBK012237C], the “% of control remaining” value is listed as 140.844%. The figure for `CC(C)Nc1cncc(OCCCN(C)C)n1` [CBK115600] is 114.69%. The figure for `O=c1[nH]c(=O)n([C@H]2C[C@@H](O)[C@@H](CO)O2)cc1CCO` [CBK201239] is 122.159%; for `COC(=O)COc1ccc(S(=O)(=O)N2CCC(C(N)=O)CC2)cc1` [CBK265993] it is 170.504%. The figure for `CCCc1[nH]nc(O)c1Cc1ccccc1C(F)(F)F` [CBK075037] is 116.577%. Turning to `CC(C)[C@@H](CO)Nc1cncc(-c2ccc3ccccc3c2)n1` [CBK065546], the “% of control remaining” value came out at 158.142%.

With `O=c1n(C(c2ccccc2)c2ccccc2)ccn1S(=O)(=O)c1cccc(Cl)c1` [CBK106615], the “% of control remaining” value was 103.115%.

For the compound `O=C(NC1CCN(Cc2ccccc2)CC1)c1cnc(-c2ccc(Cl)cc2)c(-c2cccnc2)c1` [CBK037602], the “% of control remaining” value turned out to be 123.139%.

Consider `COc1cccc2cc(C(=O)NCCCSC)oc12` [CBK149793], for which the “% of control remaining” value turned out to be 105.637%. The figure for `CCCCNC(=O)CSc1ncccc1C(=O)NCc1cccnc1` [CBK071590] is 105.927%. The figure for `CCOc1ccccc1NC(=O)CSc1nc(N)cc(O)n1` [CBK268075] is 104.792%; for `c1ccc(CN2CCN(CCN3CCn4c3nc3ccccc34)CC2)cc1` [CBK265472B] it is 117.965%; for `COc1cc2ncc(C(=O)NCc3cccs3)c(O)c2cc1OC` [CBK159998] it is 75.3089%. The figure for `CC(C)C(=O)N1CC2(CCN(Cc3nc4ccccc4[nH]3)CC2)c2ccccc21` [CBK126719] is 81.6272%. Take `COc1ccc(C)cc1N(CC(=O)Nc1ccccc1C(=O)O)S(C)(=O)=O` [CBK264009]: the “% of control remaining” value is on record as 100%.

`CN1C(=O)CC2(C1=O)C(=O)N(CCCCOc1ccccc1)c1ccc(F)cc12` (stereo not shown) [CBK075408]: the “% of control remaining” value was found to be 113.509%.

In the case of `Nc1nnc(SC2c3cccc4cccc(c34)C2NS(=O)(=O)c2ccc(Cl)cc2)s1` (stereo not shown) [CBK266373], the “% of control remaining” value was determined as 118.856%. The figure for `Cc1cc(NCC2CCCO2)n2nc(C)c(-c3ccccc3)c2n1` (stereo not shown) [CBK304531] is 118.267%; for `Cc1cc(N2CCN(C(=O)OC(C)(C)C)CC2)nc(N)n1` [CBK001843] it is 71.5303%. Under `O=C1CCCN1CCC1CCN(c2nccc(CCC(F)(F)F)n2)CC1` [CBK307534] stands 122.222%; under `COc1cccc(/C=C\c2onc(C)c2[N+](=O)[O-])c1OCC(=O)O` [CBK269063], 133.41%; under `Cc1ccc([N+](=O)[O-])cc1NS(=O)(=O)Cc1ccc(Cl)cc1` [CBK111359], 101.342%.

With `CCCNc1nc(Nc2ccc(C)cc2)nc(N2CCOCC2)n1` [CBK266664], the “% of control remaining” value is given as 149.271%. As for `Cc1c(-c2cccc(C(=O)N(CCO)C3CCS(=O)(=O)C3)c2)cnn1C` (stereo not shown) [CBK307621], the “% of control remaining” value is on record as 131.393%. The figure for `O=C(Oc1ccc2c(=O)c(Oc3ccc(-c4ccccc4)cc3)coc2c1)c1cccnc1` [CBK264479] is 97.7748%. As to `CC1(C)SC2c3ccccc3C(=O)N2[C@@H]1C(=O)N1CCC(C(=O)O)CC1` (stereo partly shown) [CBK286760], the “% of control remaining” value was found to be 127.391%. In the case of `O=C(C[C@@H]1CCNC[C@@H]1Cc1cc(-c2ccccc2)on1)N1CCN(c2ccccn2)CC1` [CBK289150], the “% of control remaining” value is 150.233%. Under `O=S(=O)(Nc1nc2ccccc2nc1Nc1ccccc1)c1ccccc1` [CBK260953] stands 107.686%. The figure for `Cc1cccc2cnc(C3CCN(C(=O)c4cnn(C)c4C)CC3)cc12` [CBK285196] is 100.302%; for `Cc1ccccc1C(=O)NC(NCC1CCCO1)C(Cl)(Cl)Cl` (stereo not shown) [CBK262273] it is 120.794%; for `O=C(CSc1nc(-c2cccc([N+](=O)[O-])c2)cs1)NCC1CCCO1` (stereo not shown) [CBK268020] it is 125.354%. Take `CN(C)c1cccc(-c2nc(-c3ccc(C#N)cc3)cnc2N)c1` [CBK064049]: the “% of control remaining” value is 138.532%. Under `CN(C)CC(=O)N1Cc2cccc3c2c(cn3S(=O)(=O)c2ccccc2)C1` [CBK155548T] stands 119.766%; under `CSCCN(C)c1nc2c(c(=O)[nH]1)Cc1ccccc1OC2` [CBK307523], 92.7961%. The figure for `CCOC(=O)N[C@@H](CC1CCCCC1)C(=O)NCCc1ccc(S(N)(=O)=O)cc1` [CBK015131] is 152.715%.
